This assay deals with endogenous (native) STAT1 of HeLa cells (human (endogenous in HeLa)) (UniProt P42224). In words: native gel or EMSA; whole cell lysates of HeLa cells (IFNγ 45 min, then staurosporine for the durations indicated) incubated in vitro with 32P-labelled M67 DNA (single high-affinity GAS site); STAT1 dimers seen as DNA-bound complexes on a 4% acrylamide gel at 4°C; homo- and heterodimers told apart by mobility. A general note: In EMSA bound probe runs differently from free probe, usually more slowly.

These are yes or no findings as the source states them, for the method shown. Some results given as binding are weak or reduced against the parent protein; the word gives no strength.

B1: STAT1-WT-GFP (wild-type human STAT1 fused to green fluorescent protein) (natural protein, UniProt P42224 1-746, looked up)
chain: MSQWYELQQLDSKFLEQVHQLYDDSFPMEIRQYLAQWLEKQDWEHAANDVSFATIRFHDLLSQLDDQYSRFSLENNFLLQHNIRKSKRNLQDNFQEDPIQMSMIIYSCLKEERKILENAQRFNQAQSGNIQSTVMLDKQKELDSKVRNVKDKVMCIEHEIKSLEDLQDEYDFKCKTLQNREHETNGVAKSDQKQEQLLLKKMYLMLDNKRKEVVHKIIELLNVTELTQNALINDELVEWKRRQQSACIGGPPNACLDQLQNWFTIVAESLQQVRQQLKKLEELEQKYTYEHDPITKNKQVLWDRTFSLFQQLIQSSFVVERQPCMPTHPQRPLVLKTGVQFTVKLRLLVKLQELNYNLKVKVLFDKDVNERNTVKGFRKFNILGTHTKVMNMEESTNGSLAAEFRHLQLKEQKNAGTRTNEGPLIVTEELHSLSFETQLCQPGLVIDLETTSLPVVVISNVSQLPSGWASILWYNMLVAEPRNLSFFLTPPCARWAQLSEVLSWQFSSVTKRGLNVDQLNMLGEKLLGPNASPDGLIPWTRFCKENINDKNFPFWLWIESILELIKKHLLPLWNDGCIMGFISKERERALLKDQQPGTFLLRFSESSREGAITFTWVERSQNGGEPDFHAVEPYTKKELSAVTFPDIIRNYKVMAAENIPENPLKYLYPNIDKDHAFGKYYSRPKEAPEPMELDGPKGTGYIKTELISVSEVHPSRLQTTDNLLPMSPEEFDEVSRIVGSVEFDSM
modifications: tyrosine-phosphorylated (phospho-Tyr701) after stimulation of cells with IFNγ
notes: also called STAT1-GFP; GFP-tagged wild-type STAT1; source: HeLa cells, transfected (pEGFP-N1-STAT1), IFNγ-stimulated, in whole cell lysate; not shown: GFP, C-terminal, kept
Regarding B1, the binding result was “binds”.

B2: STAT1-E411A-GFP (natural protein, human, UniProt P42224 1-746, looked up)
chain: MSQWYELQQLDSKFLEQVHQLYDDSFPMEIRQYLAQWLEKQDWEHAANDVSFATIRFHDLLSQLDDQYSRFSLENNFLLQHNIRKSKRNLQDNFQEDPIQMSMIIYSCLKEERKILENAQRFNQAQSGNIQSTVMLDKQKELDSKVRNVKDKVMCIEHEIKSLEDLQDEYDFKCKTLQNREHETNGVAKSDQKQEQLLLKKMYLMLDNKRKEVVHKIIELLNVTELTQNALINDELVEWKRRQQSACIGGPPNACLDQLQNWFTIVAESLQQVRQQLKKLEELEQKYTYEHDPITKNKQVLWDRTFSLFQQLIQSSFVVERQPCMPTHPQRPLVLKTGVQFTVKLRLLVKLQELNYNLKVKVLFDKDVNERNTVKGFRKFNILGTHTKVMNMEESTNGSLAAEFRHLQLKAQKNAGTRTNEGPLIVTEELHSLSFETQLCQPGLVIDLETTSLPVVVISNVSQLPSGWASILWYNMLVAEPRNLSFFLTPPCARWAQLSEVLSWQFSSVTKRGLNVDQLNMLGEKLLGPNASPDGLIPWTRFCKENINDKNFPFWLWIESILELIKKHLLPLWNDGCIMGFISKERERALLKDQQPGTFLLRFSESSREGAITFTWVERSQNGGEPDFHAVEPYTKKELSAVTFPDIIRNYKVMAAENIPENPLKYLYPNIDKDHAFGKYYSRPKEAPEPMELDGPKGTGYIKTELISVSEVHPSRLQTTDNLLPMSPEEFDEVSRIVGSVEFDSM
modifications: tyrosine-phosphorylated (phospho-Tyr701) after stimulation of cells with IFNγ
notes: STAT1, human; also called E411 mutant; source: HeLa cells, transfected (pEGFP-N1-STAT1 with point mutation), IFNγ-stimulated, in whole cell lysate; not shown: GFP, C-terminal, kept
With B2, the binding entry is listed as “binds”.

Values taken from publication PMC3507856, “Two glutamic acid residues in the DNA-binding domain are engaged in the release of STAT1 dimers from DNA” (BMC Cell Biology, 2012).
